# Measurements reported in the supplement of paper PMC6143611.
# Structures can show the parent of a compound that is named as a salt. ± gives the uncertainty stated by the source. This is one part of the list. Baselines shift from plate to plate; read single values as rough.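 A heat-shock-induced fluorescent stripe was set in larval rod outer segments at 6 dpf. Shedding distance ran from stripe to outer segment tip, measured by confocal stacks in about three fish per compound. Controls: 0.2% DMSO vehicle. Flagged compounds showed ≥20% change from same-week control, p < 0.001 (Dunnett test on mixed-effects models).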
# Legend:
# [1] = tested on: Danio rerio larva rod photoreceptor outer segment; assay: rod outer segment growth distance Dg, difference from same-week DMSO control mean; higher = more outer segment growth; settings: 20 µM; treatment time: 4 days (6-10 dpf)
# [2] = tested on: Danio rerio larva rod photoreceptor outer segment; assay: rod outer segment shedding distance Ds, difference from same-week DMSO control mean; higher = less outer segment shedding; settings: 20 µM; treatment time: 4 days (6-10 dpf)
Structure (SMILES),rod outer segment growth distance Dg [1] [um],rod outer segment shedding distance Ds [2] [um]
NS(=O)(=O)c1cc(Cl)c(Cl)c(S(N)(=O)=O)c1 [Dichlorphenamide],-2.18 ± 0.49,-1.97 ± 0.42
CCCCCCCCCCCCCCCC(=O)O[C@@H]1[C@@H](O)[C@@H](O)[C@@H]([C@H](NC(=O)[C@@H]2C[C@@H](CCC)CN2C)[C@H](C)Cl)O[C@@H]1SC [Clindamycin palmitate HCl],-0.31 ± 0.22,-0.12 ± 0.15
COc1ccccc1N1CCN(CCCNc2cc(=O)n(C)c(=O)n2C)CC1 [Urapidil HCl],-0.99 ± 0.24,-0.58 ± 0.26
O=C1CCC(N2C(=O)c3ccccc3C2=O)C(=O)N1 (stereo not given) [Thalidomide],-0.14 ± 0.18,-1.83 ± 0.24
COc1ccc(CCC(=O)Nc2nc3ccc(Cl)cc3s2)cc1OC,-1.15 ± 0.2,-0.77 ± 0.26
Nc1nc2c(ncn2COCCO)c(=O)[nH]1 [Aciclovir],-0.56 ± 0.19,-0.63 ± 0.13
CCC(=O)NCC[C@@H]1CCc2ccc3c(c21)CCO3 [Ramelteon],0.89 ± 0.25,0.48 ± 0.26
O=C(c1ccc(OCCCc2c[nH]cn2)cc1)C1CC1 [Ciproxifan],-0.69 ± 0.19,-1.03 ± 0.13
Cc1cnc(C(=O)O)c[n+]1[O-] [Acipimox],0.54 ± 0.24,-0.58 ± 0.15
O=c1cc(N2CCOCC2)oc2c(-c3ccccc3)cccc12,-1.85 ± 0.16,-0.3 ± 0.21
COc1cc(N2CCC(N(C)C)CC2)ccc1Nc1ncc(Cl)c(Nc2ccccc2P(C)(C)=O)n1,0.28 ± 0.16,-0.07 ± 0.14
O=C1[C@H](CC[C@H](O)c2ccc(F)cc2)[C@@H](c2ccc(O)cc2)N1c1ccc(F)cc1 [Ezetimibe],-0.8 ± 0.18,0.42 ± 0.18
CCCCCOC(=O)Nc1nc(=O)n([C@@H]2O[C@H](C)[C@@H](O)[C@H]2O)cc1F [Capecitabine],-0.66 ± 0.29,-0.06 ± 0.2
CCCCCCCCCCCCc1ccc(S(=O)(=O)Nc2nncs2)cc1,-1.3 ± 0.19,-0.47 ± 0.2
Cc1nnc(NS(=O)(=O)c2ccc(N)cc2)s1 [Sulfamethizole],0.23 ± 0.34,-1.9 ± 0.35
CNC[C@H](O)c1cccc(O)c1 [Phenylephrine HCl],0.15 ± 0.28,-0.26 ± 0.15
COc1cccc2c1C(=O)c1c(O)c3c(c(O)c1C2=O)C[C@@](O)(C(=O)CO)C[C@@H]3O[C@H]1C[C@H](N)[C@H](O[C@@H]2CCCCO2)[C@H](C)O1 [Pirarubicin],-1.5 ± 0.23,-0.03 ± 0.22
COc1cc2c(cc1OC)[C@@H]1Cc3ccc(OC)c(OC)c3CN1CC2 [Rotundine],-0.22 ± 0.22,-0.2 ± 0.24

# 2 neighbouring records out of the list so far, quoted:
Structure (SMILES),rod outer segment growth distance Dg [1] [um],rod outer segment shedding distance Ds [2] [um]
O=C1[C@H](CC[C@H](O)c2ccc(F)cc2)[C@@H](c2ccc(O)cc2)N1c1ccc(F)cc1 [Ezetimibe],-0.8 ± 0.18,0.42 ± 0.18
CCCCCOC(=O)Nc1nc(=O)n([C@@H]2O[C@H](C)[C@@H](O)[C@H]2O)cc1F [Capecitabine],-0.66 ± 0.29,-0.06 ± 0.2

# (list continues)

Structure (SMILES),rod outer segment growth distance Dg [1] [um],rod outer segment shedding distance Ds [2] [um]
COc1ccc(-c2cc(=O)c3c(O)cc(O[C@@H]4O[C@H](CO[C@@H]5O[C@@H](C)[C@H](O)[C@@H](O)[C@H]5O)[C@@H](O)[C@H](O)[C@H]4O)cc3o2)cc1O [Diosmin],-0.1 ± 0.35,0.18 ± 0.35
"CCCS(=O)(=O)Nc1ccc(F)c(C(=O)c2c[nH]c3ncc(-c4ccc(Cl)cc4)cc23)c1F [Vemurafenib (PLX4032, RG7204)]",-0.6 ± 0.24,-0.51 ± 0.23
COc1ccc(-c2nc3cc(C4=NNC(=O)CC4C)ccc3[nH]2)cc1 (stereo not given) [Pimobendan],-0.89 ± 0.18,-0.53 ± 0.19
CN(C)CCc1c[nH]c2ccc(C[C@H]3COC(=O)N3)cc12 [Zolmitriptan],-0.3 ± 0.25,0.13 ± 0.18
O=c1c(O)c(-c2ccc(O)cc2O)oc2cc(O)cc(O)c12 [Morin Hydrate],-0.56 ± 0.32,0.82 ± 0.28
O=C(/C=C/C=C/c1ccc2c(c1)OCO2)N1CCCCC1 [Piperine],-2.98 ± 1.1,-3.8 ± 1.1
NC12CC3CC(CC(C3)C1)C2 [Amantadine HCl],-0.66 ± 0.29,-0.13 ± 0.29
CNC(=O)c1cc(COc2nnc(Nc3ccc(Cl)cc3)c3ccoc23)ccn1 [Telatinib],-0.73 ± 0.28,-0.87 ± 0.24
O=c1c(O)c(-c2ccc(O)c(O)c2)oc2cc(O)ccc12 [Fisetin],0.55 ± 0.29,0.7 ± 0.3
Cc1nccn1CC1CCc2c(c3ccccc3n2C)C1=O (stereo not given) [Ondansetron HCl],-1.23 ± 0.21,-0.89 ± 0.24
Fc1cc(-c2cccc3ncc(-c4cnn(C5CCNCC5)c4)nc23)cc(F)c1CN1CCOCC1,-1.16 ± 0.15,0.22 ± 0.13
COCCCOc1cc(C[C@@H](C[C@H](N)[C@@H](O)C[C@H](C(=O)NCC(C)(C)C(N)=O)C(C)C)C(C)C)ccc1OC [Aliskiren Hemifumarate],0.04 ± 0.3,-0.14 ± 0.23
CC(C)NC[C@@H](C(=O)N1CCN(c2ncnc3c2[C@H](C)C[C@H]3O)CC1)c1ccc(Cl)cc1,-0.31 ± 0.17,-0.44 ± 0.13
NC1=N[C@@]2(c3cc(NC(=O)c4ccc(F)cn4)ccc3F)COC[C@H]2CS1,0.36 ± 0.3,-0.47 ± 0.32
CCCc1nc2c(C)cc(-c3nc4ccccc4n3C)cc2n1Cc1ccc(-c2ccccc2C(=O)O)cc1 [Telmisartan],-0.45 ± 0.23,-0.01 ± 0.18
CC1(COc2ccc3c(c2)ncn3-c2ccc3cccc(N4CCC(N)CC4)c3n2)COC1,-1.58 ± 0.15,-0.67 ± 0.11
Cc1ccc(NC(=O)c2cccc(N(C)C)c2)cc1NC(=O)c1ccc(O)cc1,-0.7 ± 0.15,-0.48 ± 0.11
